Record: PubChem BioAssay AID1259424 (University of Nebraska Medical Center, 2018)

- Screen: 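Find knockdowns that reproduce the expression shifts seen after KSR1 loss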 (primary screen)
- Cell system: human HCT116 colon cancer cells
- Knock-down reagent: siRNA pool against human genes, 50 nM
- Measured: 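Six signature mRNAs by branched-DNA multiplex assay, scaled to two housekeeping genes and non-targeting median, log2; matched to mean KSR1 knockdown profile by Pearson correlation and euclidean distance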
- Scale: mean correlation with KSR1 profile and KSR1 correlation: higher = expression change more like KSR1 knockdown; mean distance from KSR1 profile: higher = expression change less like KSR1 knockdown
The whole screen tested about 14,000 reagents; below is a random part of them. 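Higher correlation or smaller distance means closer resemblance to KSR1 loss; control wells, including KSR1 knockdowns, recur on many plates.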 Further read-outs or replicates are left out here. No sequences are given here. The record does not give: the time to read-out.

| target | mean correlation with KSR1 profile | mean distance from KSR1 profile | KSR1 correlation, replicate 1 | KSR1 correlation, replicate 2 |
| --- | --- | --- | --- | --- |
| TATDN2 (GeneID 9797) | -0.635 | 1.46 | -0.45 | -0.472 |
| LHX1 (GeneID 3975) | 0.602 | 1.21 | 0.616 | 0.495 |
| KCNK9 (GeneID 51305) | -0.295 | 1.66 | -0.0943 | -0.375 |
| PKNOX2 (GeneID 63876) | -0.298 | 3.31 | -0.436 | -0.248 |
| MRPL28 (GeneID 10573) | -0.573 | 1.71 | -0.369 | -0.566 |
| MORC3 (GeneID 23515) | -0.484 | 2.96 | -0.369 | -0.555 |
| HUS1 (GeneID 3364) | 0.034 | 3.63 | -0.0193 | -0.0638 |
| CSF3R (GeneID 1441) | 0.934 | 0.448 | 0.91 | 0.822 |
| SHOX (GeneID 6473) | -0.0661 | 2.02 | 0.382 | 0.000689 |
| LILRB4 (GeneID 11006) | -0.178 | 1.63 | -0.0991 | -0.297 |
| MRPL44 (GeneID 65080) | 0.1 | 1.94 | 0.0538 | -0.0968 |
| NCOA3 (GeneID 8202) | -0.0273 | 2.13 | -0.0296 | 0.131 |
| PAQR7 (GeneID 164091) | 0.53 | 1.12 | 0.211 | 0.613 |
| BRS3 (GeneID 680) | 0.587 | 1.91 | 0.613 | 0.572 |
| IPO13 (GeneID 9670) | -0.643 | 1.69 | -0.268 | -0.565 |
| C5AR2 (GeneID 27202) | 0.248 | 2.02 | 0.313 | 0.28 |
| ICAM4 (GeneID 3386) | -0.215 | 4.37 | -0.387 | -0.27 |

2 successive entries from above, quoted:
| target | mean correlation with KSR1 profile | mean distance from KSR1 profile | KSR1 correlation, replicate 1 | KSR1 correlation, replicate 2 |
| --- | --- | --- | --- | --- |
| MORC3 (GeneID 23515) | -0.484 | 2.96 | -0.369 | -0.555 |
| HUS1 (GeneID 3364) | 0.034 | 3.63 | -0.0193 | -0.0638 |

Further results follow.
| target | mean correlation with KSR1 profile | mean distance from KSR1 profile | KSR1 correlation, replicate 1 | KSR1 correlation, replicate 2 |
| --- | --- | --- | --- | --- |
| STRADB (GeneID 55437) | 0.218 | 2.06 | 0.0564 | 0.331 |
| ACSBG2 (GeneID 81616) | 0.0364 | 2.68 | -0.0346 | -0.00666 |
| CLK1 (GeneID 1195) | -0.062 | 2.14 | 0.0985 | -0.0126 |
| DUSP19 (GeneID 142679) | 0.26 | 1.18 | 0.282 | 0.0335 |
| TRMU (GeneID 55687) | -0.221 | 1.7 | -0.27 | -0.546 |
| DPEP3 (GeneID 64180) | -0.391 | 3.55 | -0.514 | -0.236 |
| NEIL3 (GeneID 55247) | -0.426 | 1.15 | -0.232 | -0.189 |
| RNF6 (GeneID 6049) | 0.61 | 1 | 0.43 | 0.519 |
| ESYT1 (GeneID 23344) | -0.00514 | 2.74 | 0.0574 | 0.152 |
| SBDS (GeneID 51119) | -0.192 | 2.12 | -0.314 | -0.188 |
| BICD2 (GeneID 23299) | -0.349 | 2.5 | -0.26 | -0.348 |
| ARPP19 (GeneID 10776) | 0.706 | 0.914 | 0.724 | 0.609 |
| YTHDF1 (GeneID 54915) | 0.0132 | 1.27 | -0.271 | 0.248 |
| TRIP12 (GeneID 9320) | 0.198 | 1.64 | -0.101 | 0.289 |
| CEACAM4 (GeneID 1089) | -0.405 | 2.71 | -0.437 | -0.486 |
| ABI3BP (GeneID 25890) | -0.258 | 2.04 | -0.0264 | -0.728 |
| HCRT (GeneID 3060) | 0.863 | 1.36 | 0.862 | 0.657 |
